Measurements taken from paper PMC3457980.
No constants are given. Whether binding was seen depends on the method and setting. Binding seen in cells or lysates may run through a third protein. Where a sequence is shown, tags or fusion partners need not be part of it.

Amino acid sequences for entries named in this document (tags omitted).
UniProt P35637: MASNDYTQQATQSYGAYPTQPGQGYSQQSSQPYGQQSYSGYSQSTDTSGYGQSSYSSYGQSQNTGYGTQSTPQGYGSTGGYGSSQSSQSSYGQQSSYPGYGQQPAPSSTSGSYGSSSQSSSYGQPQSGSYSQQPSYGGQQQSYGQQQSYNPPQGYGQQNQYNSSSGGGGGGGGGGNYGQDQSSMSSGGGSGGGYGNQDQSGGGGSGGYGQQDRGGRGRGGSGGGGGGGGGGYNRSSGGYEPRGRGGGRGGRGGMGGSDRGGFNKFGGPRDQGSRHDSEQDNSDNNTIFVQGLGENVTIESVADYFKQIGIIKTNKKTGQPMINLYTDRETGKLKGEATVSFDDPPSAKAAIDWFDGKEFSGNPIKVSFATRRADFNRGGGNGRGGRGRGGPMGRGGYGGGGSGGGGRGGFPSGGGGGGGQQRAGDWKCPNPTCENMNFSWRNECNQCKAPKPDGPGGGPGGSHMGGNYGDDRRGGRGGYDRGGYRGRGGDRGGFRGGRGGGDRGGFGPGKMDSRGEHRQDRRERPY
UniProt Q01844: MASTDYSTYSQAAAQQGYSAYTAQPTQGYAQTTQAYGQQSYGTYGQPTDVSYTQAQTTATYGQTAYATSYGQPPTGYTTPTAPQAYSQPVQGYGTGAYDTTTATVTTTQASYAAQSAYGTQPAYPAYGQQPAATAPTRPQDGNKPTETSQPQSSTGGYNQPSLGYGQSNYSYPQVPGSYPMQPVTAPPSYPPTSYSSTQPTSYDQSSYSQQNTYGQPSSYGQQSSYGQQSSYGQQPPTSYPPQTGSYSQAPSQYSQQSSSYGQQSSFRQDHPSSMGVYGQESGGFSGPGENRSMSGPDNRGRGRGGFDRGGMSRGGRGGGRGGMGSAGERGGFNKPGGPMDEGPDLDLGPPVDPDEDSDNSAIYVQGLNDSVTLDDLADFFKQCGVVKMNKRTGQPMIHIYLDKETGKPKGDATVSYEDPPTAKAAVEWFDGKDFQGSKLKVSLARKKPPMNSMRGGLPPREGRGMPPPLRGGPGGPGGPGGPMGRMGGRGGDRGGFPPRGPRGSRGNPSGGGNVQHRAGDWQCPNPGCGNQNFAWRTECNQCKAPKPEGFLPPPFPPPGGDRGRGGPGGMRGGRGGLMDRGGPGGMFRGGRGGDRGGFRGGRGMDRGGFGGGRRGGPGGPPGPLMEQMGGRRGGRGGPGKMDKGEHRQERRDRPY

Columns and labels:
FLAG-tagged TIAR [1] = molecular target: T1, FLAG-tagged TIAR (UniProt Q01085); assay: co-IP; as a1 but with omission of RNase A: FLAG-tagged bait precipitated on anti-FLAG M2 agarose from lysate (NaCl 100 mM), 4°C for 3 hours; cells unstressed or treated with arsenite; western blot
T1 sequence: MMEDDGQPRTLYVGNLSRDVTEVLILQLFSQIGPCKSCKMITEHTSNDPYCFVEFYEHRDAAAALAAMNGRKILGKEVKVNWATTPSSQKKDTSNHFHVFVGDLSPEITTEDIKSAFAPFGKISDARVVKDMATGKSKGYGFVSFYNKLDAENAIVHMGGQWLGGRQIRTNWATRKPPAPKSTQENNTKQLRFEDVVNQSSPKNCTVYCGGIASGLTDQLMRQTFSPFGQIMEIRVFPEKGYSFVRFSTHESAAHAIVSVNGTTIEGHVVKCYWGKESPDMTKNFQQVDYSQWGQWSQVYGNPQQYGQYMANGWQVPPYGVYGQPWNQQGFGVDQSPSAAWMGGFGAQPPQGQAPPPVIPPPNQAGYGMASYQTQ

FLAG-tagged TIAR [2] = molecular target: T1, FLAG-tagged TIAR; assay: co-IP; FLAG-tagged bait precipitated on anti-FLAG M2 agarose from lysate (hypotonic lysis buffer, NaCl re-adjusted to 100 mM), RNase A added, 4°C for 3 hours, 8 washes in NET-2 buffer with FLAG-peptide; cells unstressed or treated with arsenite; western blot
FLAG-tagged TIA1 [3] = molecular target: T2, FLAG-tagged TIA1 (UniProt P31483); assay: co-IP; as a1 but with omission of RNase A: FLAG-tagged bait precipitated on anti-FLAG M2 agarose from lysate (NaCl 100 mM), 4°C for 3 hours; cells unstressed or treated with arsenite; western blot
T2 sequence: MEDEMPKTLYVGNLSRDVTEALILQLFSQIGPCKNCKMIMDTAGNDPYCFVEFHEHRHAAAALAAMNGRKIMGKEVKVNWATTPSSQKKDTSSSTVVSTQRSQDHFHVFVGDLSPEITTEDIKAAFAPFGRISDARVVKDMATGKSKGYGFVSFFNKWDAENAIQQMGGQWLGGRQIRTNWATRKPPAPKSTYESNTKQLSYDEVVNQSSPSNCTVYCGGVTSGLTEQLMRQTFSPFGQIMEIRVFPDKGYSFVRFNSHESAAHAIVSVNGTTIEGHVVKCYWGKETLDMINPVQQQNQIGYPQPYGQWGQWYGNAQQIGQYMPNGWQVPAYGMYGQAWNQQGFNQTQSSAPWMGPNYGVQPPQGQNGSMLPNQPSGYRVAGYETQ

FLAG-tagged TIA1 [4] = molecular target: T2, FLAG-tagged TIA1; assay: co-IP; FLAG-tagged bait precipitated on anti-FLAG M2 agarose from lysate (hypotonic lysis buffer, NaCl re-adjusted to 100 mM), RNase A added, 4°C for 3 hours, 8 washes in NET-2 buffer with FLAG-peptide; cells unstressed or treated with arsenite; western blot

Measured: binding

FUS (fused in sarcoma) (from UniProt P35637 1-526)
no binding: FLAG-tagged TIAR [1] | FLAG-tagged TIAR [2]

EWS (Ewing sarcoma breakpoint 1) (from UniProt Q01844 1-656)
no binding: all assays above
